In article PMC3775806 one finds binding data, which are given here for 1 molecule.

No constants are given. Whether binding was seen depends on the method and setting. Binding seen in cells or lysates may run through a third protein.

In the experiment the target is HA-Lia5p (Tetrahymena thermophila). Kind of experiment: co-IP; anti-HA immunoprecipitation from lysates of conjugating HA-LIA5 cells; IP and supernatant analysed by SDS-PAGE and western blot with anti-HA, anti-Pdd1 and anti-Pdd3; controls: untransformed cells (Mock1) and rabbit IgG only (Mock2); performed as in ref. 35. (In western blotting, separated proteins are transferred to a membrane and probed.)

B1: Pdd1p (protein, UniProt Q94996 1-499)
chain: MFTVKSLQQFQAKKAINISIKKMSQKKSLKQKRKQDYSSDTEEEEEDQYEVEKILDSRFNPKTKQKEYLVKWENWPIEDSTWEPYEHLSNVKEIVQAFEKKQKANVMPQPTGPITRVNAQKDPQKKNRLSLNSSISKSLPQEEEIQTSKEDSKKQAVKKFQPASRRKSISSQSDSDLQAEEVPQQPESKKDKNDGAFEEPNNADADETELVFEEIVDKRILDGQTEYLIRFQNVSQPQWVDVGQLIAIKDDVIAYEDKIAAQSQLNKTKNLKENAKHSSQQQQSENNNLETEEVEEDKDSKKRSLLANSKRPTAKRSQPFNQDEEKEKSVTQPTSNLGSKGQSQQVEKEQATNSQTQQPQTAHRSGSRLSQIQSNANQVTQQAQQLSNTNNSSSTSLEVSSKMPSQMSQKRRPIELTEIQQGDFKTDNVDKIEIQGDFNDIMTSRFEVFWKIRQDNVTPASQVYSASYLRRYEPQVLIDFLLQHSNQSQLRQANQQLTH
On to B1, for which the binding entry is “no binding”.
